Screening data, single-dose tests

Sequences of proteins named here, by UniProt entry; tags and fusion partners are left off.
UniProt P9WFT3, whole entry: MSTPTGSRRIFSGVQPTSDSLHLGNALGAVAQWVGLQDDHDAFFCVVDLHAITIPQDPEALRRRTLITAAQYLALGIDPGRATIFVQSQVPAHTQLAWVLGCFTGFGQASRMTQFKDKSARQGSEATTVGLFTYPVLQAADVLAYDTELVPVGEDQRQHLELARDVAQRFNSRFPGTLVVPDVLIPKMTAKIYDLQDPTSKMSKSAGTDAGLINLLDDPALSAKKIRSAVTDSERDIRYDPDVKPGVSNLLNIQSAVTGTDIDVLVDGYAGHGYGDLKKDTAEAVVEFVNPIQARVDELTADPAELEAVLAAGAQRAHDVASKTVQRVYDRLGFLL

Values are the deposited “Percent Effect”, in %.
The controls that fix the scale are not given in the record; negative values are as filed.
This is an unselected part of the compounds tested.
Two or more numbers in one place are separate tests of the same structure; such repeats can differ widely.
A dash means the value is not listed here; it may have been measured.

MtTrpRS: 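Enzyme assay of tryptophanyl-tRNA synthetase; the read-out is not stated. Target: Tryptophan-tRNA ligase, Mycobacterium tuberculosis (UniProt P9WFT3). Concentration: 10 µM. Direction is not recorded; retested compounds ran higher, which suggests that high means inhibition. Size under these conditions: about 65,000 compounds, about 64 of them at 50% or above in at least one test.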
Leishmania in macrophages: 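Cell assay of Leishmania donovani living inside macrophages; the read-out is not stated. Concentration: 30 µM. Direction is inferred from retests: higher values go with stronger inhibition. Of about 69,000 compounds tested this way, about 1,000 (1.5%) reached 50% or more in at least one test.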

SMILES | MtTrpRS | Leishmania in macrophages
O=C(NCCCc1ccncc1)C1CCCN(Cc2ccco2)C1 (stereo not shown) | -1.066 | 28.63
CO[C@H]1CN(C(=O)OC(C)(C)C)CC1NCc1ccn(C)c1 (stereo partly shown) | -3.151 | 1.871
O=C(O)[C@H]1CCCN1CCOc1cccc(Cl)c1 | -0.3636 | 13.86
COc1ccc(CCN2CCCC(CN(C)Cc3[nH]cnc3C)C2)cc1 (stereo not shown) | 2.719 | -2.681
O=C(c1cc2ccccc2s1)N1CCC(C(=O)O)(n2cccn2)CC1 | -2.252 | 7.072
[H][C@@]12COC[C@]1(CNS(C)(=O)=O)CN(C(=O)c1ccoc1)C2 | - | 4.984
O=c1[nH]c(N2CCCCC2)nc2nccc(-c3ccc4c(c3)OCO4)c12 | -2.679 | 16.58
COc1ccc(C)cc1CN1CCCC1Cn1nc(C)nc1C (stereo not shown) | -0.8772 | 23.44
O=C(NCCNc1ccccn1)NCC1CCS(=O)(=O)C1 (stereo not shown) | 12.93 | -13.54
O=C(c1ccncn1)N1CCC[C@]2(C[C@@H](OCc3ccccn3)CO2)C1 | 5.629 | 37.47
CCc1ncnc2c1CCN(C(=O)c1ccccn1)CC2.O=C(O)C(F)(F)F | - | 19.55
COc1cccc(CC(=O)N2CCC(NCc3c[nH]nc3C)CC2)c1 | -0.4838 | -1.341
O=C(O)C(F)(F)F.O=C(O)C(F)(F)F.[H][C@@]12CN(CC3CC3)C[C@]1([H])OCCN2Cc1c(C)noc1C | - | 26.39
OCC1(Cc2ccc(F)cc2F)CCCN(Cc2ccncc2)C1 (stereo not shown) | -1.176 | 19.1
Cc1c(CNC2CCN(c3ccccc3OC(F)F)C2)cnn1C (stereo not shown) | 1.264 | 6.855
CSc1ccc(CN(C)Cc2noc(C(C)(C)C)n2)cc1 | -1.614 | -12.98
CCc1ccc(CNC(=O)c2ccc(N3CCOC3=O)cc2)s1 | 9.322 | -6.823
O=C1CCC2(CCOC2)CN1Cc1nc2ccc(Cl)cc2[nH]1 (stereo not shown) | -0.677 | -27.1
COCCC(=O)N1CCN(C)c2ncccc2C1 | 4.391 | 19.05
NC(=O)C1CCN(c2nc3nccc(-c4ccccc4)c3c(=O)[nH]2)CC1 | 2.22 | 15.7
Cc1ccc(-c2cc(C(=O)NCCN3CCCS3(=O)=O)[nH]n2)o1 | -1.872 | 26.41
Fc1ccc(CN2CCCCC2Cn2cncn2)c2ncccc12 (stereo not shown) | -1.145 | -16.1
c1ccc2c(N3CCCCC3Cn3cccn3)ncnc2c1 (stereo not shown) | 0.9676 | 28.58
COCCN1CCC1c1cc(N)nc(C)n1 (stereo not shown) | -2.607 | -1.622
CN(C)C(C(=O)NCC1(O)CCCCC1)c1cccc(F)c1 (stereo not shown) | -5.319 | 16.66
Cc1ncsc1CCC(=O)NC1CCN(c2ncccc2C#N)CC1 | -2.75 | -6.941
Cc1cc(CN(C)C(=O)NC2CCCC2)no1 | -3.336 | 27.5
Nc1cc2c(nn1)CCN(C(=O)Cc1ccc3c(c1)CCCC3)C2 | 3.631 | -5.159
CC(Cn1ccnc1)NS(=O)(=O)Cc1ccc(F)cc1 (stereo not shown) | -4.913 | 40.51
CC1CCN(C(=O)C2CCN(c3ccc(Cl)cc3C#N)CC2)CC1 | -0.08333 | -14.88
Cc1cc(CCC(=O)N2CCOCC2)ccc1Br | -0.8596 | -0.01896
CC(C)c1cc(C(=O)N2CCC3(CCc4ccccc4C(=O)N3)C2)on1 (stereo not shown) | -2.344 | 7.686
O=C(O)c1cccc(C2CCCN(S(=O)(=O)N3CCOCC3)C2)c1 (stereo not shown) | -0.7916 | -10.3
CN(C)Cc1ccnc(C2CN(Cc3nccs3)CCO2)n1 (stereo not shown) | - | 6.874 & 7.11
Cc1cc(-c2ccc(=O)n(C3CCN(S(=O)(=O)N(C)C)CC3)n2)c(C)o1 | -3.465 | 10.01
CNC(=O)[C@H]1C[C@H]2OCC[C@H]2N(CCOc2ccc(Cl)cc2)C1 | -1.274 | -
CC(=O)N1CCCN(C(=O)C(C)n2cncn2)CC1 (stereo not shown) | -3.549 | -19.6
Cc1ccsc1C(=O)N1CCC(Nc2cccnc2)CC1 | 3.475 | 31.85
CCN1CC2(CC1=O)CN(Cc1ccco1)CCN(C(=O)N(C)C)C2 (stereo not shown) | 7.155 | -
Cc1cc(CNc2ccnn2CC(C)C)ccc1-n1cncn1 | -2.7 | 44.67
Cc1cc(N2CCN(C3CCOCC3)CC(C(=O)N(C)C)C2)ncn1 (stereo not shown) | -5.99 | -11.47
COCC1CN(S(=O)(=O)c2ccc(C)cc2)Cc2c1cnn2C (stereo not shown) | 2.697 | -
Cc1cc(=O)c2cc(F)ccc2n1CC(=O)O | 0.6803 | -7.258
O=C(c1ccnnc1)N1C[C@@H]2CC[C@H](Oc3cccc(F)c3)[C@@H]2C1 | 3.261 | -
O=C(O)C(F)(F)F.[H][C@@]12CN(Cc3cccs3)C[C@@]1([H])N(CC1CC1)C(=O)CO2 | - | 15.35
CC(C)(C)c1ncc(CNCC2CCCN2c2cccnn2)s1 (stereo not shown) | -1.306 | 27.68
CN(C)c1ccc(CNC2(c3ccc(F)cc3)CCOCC2)cc1F | -1.009 | -15.25
CCN(CC)c1ncnc2c1CCN(c1ccc(C)nn1)CC2 | - | 20.2
CNc1nc2c(s1)C(c1c(F)cccc1Cl)CC(=O)N2 (stereo not shown) | 16.84 | 24.61
CCc1nc(C2CCCN(c3ncccn3)C2)no1 (stereo not shown) | -2.096 | 19.48
Cc1cnc(NC(=O)NCCOc2ncccc2Cl)s1 | 0.7498 | 47.09
CSCC(=O)N(C)Cc1ccc(N(C)C)cc1 | -7.977 | 5.174
COc1ccc(-n2ccc(CNCc3cccc(OC)c3)n2)cc1 | 9.53 | 6.227
CC(C)c1nnc(N2C[C@@H](CN(C)CCO)[C@@H](CO)C2)s1 | -0.6791 | -19.45
c1csc(-c2nnc(CSCCN3CCOCC3)o2)c1 | -0.07788 | 17.12
C[C@@H]1CN(S(=O)(=O)c2ccc(F)cc2F)C[C@]1(C)O | 1.63 | -19.84
COCC(NC(=O)c1cn2ccsc2n1)c1ccnn1C (stereo not shown) | 1.224 | 7.844
CC(C)c1ccc(NC(=O)Cn2cc(I)cn2)cc1 | 0.7498 | -15.25 & -23.58
Cn1cc(C[C@H]2[C@H](O)CCN2Cc2ccncc2)cn1.O=C(O)C(F)(F)F.O=C(O)C(F)(F)F | - | 4.086
Cc1cc(C)nc(C2CCN(C3CCCCC3)C2)n1 (stereo not shown) | -7.525 | 31.48
O=S(=O)(N1CCCCC1)N1CCOC2(CCCC2)C1 | 3.457 | -5.046
CNC(=O)c1cc2c(nc1NC(C)C)CCN(C(=O)NC(C)C)CC2 | 0.3353 | 36.2
O=C(CN1CCN(C(=O)c2ccccc2)CC1)Nc1ncc(Br)cc1Br | -4.935 | -1.973
Cn1ccnc1CN1CCN(CC(O)c2ccccc2)CC1 (stereo not shown) | -2.392 | 33.52
Cc1ccc(C(=O)N(C)CCCc2cnn(C)c2)cc1N1CCNC1=O | 4.079 | -3.416
[H][C@@]12CCN(C[C@@H]1CC)[C@@H](CNC(=O)Nc1cc(OC)cc(OC)c1)C2 | - | -30.84

Some entries from above, unchanged:

SMILES	MtTrpRS	Leishmania in macrophages
CN(C)C(C(=O)NCC1(O)CCCCC1)c1cccc(F)c1 (stereo not shown)	-5.319	16.66
CC(C)c1cc(C(=O)N2CCC3(CCc4ccccc4C(=O)N3)C2)on1 (stereo not shown)	-2.344	7.686
O=C(NCCCc1ccncc1)C1CCCN(Cc2ccco2)C1 (stereo not shown)	-1.066	28.63
O=C(c1cc2ccccc2s1)N1CCC(C(=O)O)(n2cccn2)CC1	-2.252	7.072
Cn1cc(C[C@H]2[C@H](O)CCN2Cc2ccncc2)cn1.O=C(O)C(F)(F)F.O=C(O)C(F)(F)F	-	4.086

From ChEMBL document CHEMBL3988442, “University of Dundee, Small-Polar-MMV Screening Library” (2021).